From patent EP4772529A1, “PEPTIDE HAVING ACTIVITY OF SKIN WHITENING AND USES THEREOF” (Caregen Co., Ltd., priority 2023, dated 2026)
Part of at least one peptide drawing is inferred or uncertain, most often the ends. No end group written: not given here.

What was measured:
Type in all cases: cell-based, human
[1] = test system: TLR3 (Toll-like receptor 3) gene; assay: Expression analysis of TLR3 gene (RT-PCR) after Poly(I:C) stimulation; conditions: HaCaT cells; peptide 10 µM, 50 µM, 100 µM, and 200 µM for 30 minutes, then 30 µg/mL poly(I:C) for 24 hours; mRNA; FIG. 2
HaCaT cells [2] = assay: Poly (I:C)-induced phagocytosis, microsphere absorption (confocal fluorescence); conditions: peptide 50 µM, 100 µM, and 200 µM pretreated for 1 hour, then 30 µg/mL Poly (I:C) and microspheres (1 µm) for 24 hours; FIGS. 4A and 4B
[3] = test system: KGFR (Keratinocyte growth factor receptor) gene; assay: Expression analysis of KGFR gene (RT-PCR); conditions: HaCaT cells; peptide 10 µM, 50 µM, 100 µM, and 200 µM for 6 hours; mRNA; FIG. 3
HaCaT cells [4] = assay: Analysis of absorption by melanosome phagocytosis (melanin content, absorbance at 490 nm); conditions: peptide 50µM, 100 µM and 200 µM for 24 hours, then 10 µg/ml melanosomes isolated from B16F10 cells for 48 hours, FIG. 1

Which “expression level of the TLR3 gene” value [1] does the source give for “KLKKDRMQRS [peptide of Preparation Example 1, KLKKDRMQRS (Lys-Leu-Lys-Lys-Asp-Arg-Met-Gln-Arg-Ser)]” here?
The value was “suppressed”.

And the absorption of microspheres (HaCaT cells [2])?
The absorption of microspheres was “reduced”.

What about the “expression level of the KGFR gene” value [3] of the same sequence?
The value was “reduced in a concentration-dependent manner”.

What about the “absorption (uptake) of melanosomes in HaCaT cells” value (HaCaT cells [4]) of the same sequence?
The value was “inhibited”.
